Test results as given in PubChem BioAssay AID720541 (National Center for Advancing Translational Sciences (NCATS), 2013).
Hit rate of the full screen: of about 1,300 compounds, about 420 (32%) were called active. Inconclusive means that the source gave no clear call. Such entries were picked first, then a sample of the others. The call rests on the fitted dose curve; in most records, active means well fitted inhibition curve with a large enough effect; inconclusive means small, poorly fitted or top-dose-only effect; inactive means no such curve, though single readings can be large or run the other way. A potency beside an inconclusive call is a rough fit, not a confirmed value.

What follows are molecules tested against C-terminal-binding protein 1 (Homo sapiens) (UniProt Q13363) (assay: qHTS for Inhibitors of the Phosphatase Activity of Eya2: Carboxyl-terminal binding protein (CtBP) Counterscreen for Cherry-picked Compounds). Conditions: purified protein-protein binding, AlphaScreen, 3 h; activity change, negative = inhibition: at 46.1 µM (top of the series).
How it was run: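 AlphaScreen using 25 nM GST-E1A with 25 nM CtBP-6xHIS; compounds at 2.5 nM–46 uM final, 2 h at room temperature, then donor/acceptor beads (20 ug/mL) for 1 h in the dark. Signal normalized to E1A peptide inhibitor (maximum inhibition) and DMSO.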
Further: nearly all actives have a fitted effect of over 65% in size.
On the % scale 0 is the no-effect control and ±100 the full control effect; potency means the concentration at half of the fitted maximal effect.

| SMILES | Potency | activity change, negative = inhibition |
| --- | --- | --- |
| C=CCN(CC=C)S(=O)(=O)c1ccc(C(=O)Nc2nnc(CSC)o2)cc1 | inconclusive: 16.9 µM [inhibitor, single point] | – |
| Nc1ccccc1C(=O)NNc1c2ccccc2nc2ccccc12 | active: 6.75 µM | – |
| O=C(Oc1ccc(C(=S)N2CCOCC2)cc1)c1ccccc1F | inconclusive: 30.1 µM [inhibitor, single point] | – |
| COc1cc(CNc2ccc(O)cc2)cc(Br)c1OCc1ccccc1 | inconclusive: 16.9 µM [inhibitor, single point] | – |
| CNC(=O)c1cc(Nc2nnc(-c3ccc(C)c(S(N)(=O)=O)c3)c3ccccc23)ccc1OC | inconclusive: 12 µM [inhibitor, partial curve] | – |
| COc1ccc(C2=NN(C(=O)c3ccco3)C(c3cccs3)C2)cc1OC (stereo not given) | inconclusive: 16.9 µM [inhibitor, partial curve] | – |
| COc1ccc2nc(NC(=S)NC(=O)c3ccco3)sc2c1 | – | inactive: -10.3% |
| Cc1cc(-c2ccccc2)c2c3c(cn2n1)c(=O)n(C)c(=O)n3C | inconclusive: 15.1 µM [inhibitor, single point] | – |
| COc1ccc(C=C2SC(=S)N(CCCN3CCOCC3)C2=O)c(OC)c1 | inconclusive: 16.9 µM [inhibitor, partial curve] | – |
| CCC(C)N(C(=O)CSc1nc(-c2cccs2)nc2ccccc12)C1CCS(=O)(=O)C1 (stereo not given) | – | inactive: -28.4% |
| CCN(CC)c1ccc(NC(=O)COC(=O)CSc2ccc(Br)cc2C)cc1 | inconclusive: 16.9 µM [inhibitor, partial curve] | – |
| O=C(Cc1ccc(F)cc1)Oc1ccc(C(=S)N2CCCC2)cc1 | inconclusive: 30.1 µM [inhibitor, single point] | – |
| O=C(Nc1ccc(F)cc1)c1nc[nH]c1C(=O)O | active: 7.57 µM | – |
| CCCCn1c(=O)[nH]c2nc3cc(N)ccc3nc2c1=O | inconclusive: 10.7 µM [inhibitor, partial curve] | – |
| Cc1cccc(N2CC(C(=O)OCC(=O)c3ccc(OC(=O)c4cccs4)cc3)CC2=O)c1C (stereo not given) | inconclusive: 30.1 µM [inhibitor, single point] | – |
| CCc1ccc2nc3nc(C)cc(C)c3c(N)c2c1 | active: 10.7 µM | – |
| CCOC(=O)c1[nH]c2ccc(C(=O)OC)cc2c1C(=O)OCC | active: 10.7 µM | – |
| COC(=O)CSc1nnc(-c2ccccn2)n1N | inconclusive: 26.9 µM [inhibitor, single point] | – |
| Cc1nc2ncccn2c1-c1csc(Nc2ccc(S(N)(=O)=O)cc2)n1 | inconclusive: 13.5 µM [inhibitor, partial curve] | – |
| NC(=O)c1ccc(/C=N/O)nc1 | inconclusive: 13.5 µM [inhibitor, partial curve] | – |
| O=C1c2ccccc2C(=Cc2cccnc2)c2ccccc21 | inconclusive: 8.49 µM [inhibitor, partial curve] | – |
| COc1cc(/C=C2\SC(=N)N(c3ccc4c(c3)OCO4)C2=O)cc(OC)c1O | inconclusive: 6.75 µM [inhibitor, partial curve] | – |
| CCOc1ccc(NC(=O)CSc2ccc(-c3ccccn3)nn2)cc1 | inconclusive: 1.69 µM [inhibitor, full curve] | – |

| SMILES | Potency | activity change, negative = inhibition |
| --- | --- | --- |
| Cc1ccc(CN2CCN(/N=C/c3cccn3C)CC2)c(C)c1 | inconclusive: 15.1 µM [inhibitor, partial curve] | – |
| Cc1nnc(NC(=O)c2ccc(S(=O)(=O)N3CCc4ccccc4C3)cc2)o1 | inconclusive: 15.1 µM [inhibitor, single point] | – |
| O=C1C(N2CCOCC2)=Cc2cccc3cccc1c23 | inconclusive: 19 µM [inhibitor, single point] | – |
| Cc1nnc(NC(=O)CCSCCC(=O)Nc2nnc(C)s2)s1 | inconclusive: 30.1 µM [inhibitor, single point] | – |
| N#CCC(=O)Nc1ccc(C(=O)Nc2ccc3c(c2)OCO3)cc1 | inconclusive: 21.3 µM [inhibitor, partial curve] | – |
| Cn1c(=O)n(Cc2ccccc2F)c(=O)c2c1nc1n2CCN1Cc1ccco1 | inconclusive: 13.5 µM [inhibitor, partial curve] | – |
| Cc1cc(Nc2ccc([N+](=O)[O-])cc2)c2ccccc2n1 | – | inactive: -2.71% |
| COc1ccc(-c2nc(N)ncc2-c2csc(C)n2)c(O)c1 | – | inactive: -15.6% |
| CN1C(=O)/C(=C/c2ccc(O)c([N+](=O)[O-])c2)N(C)C1=S | inconclusive: 16.9 µM [inhibitor, partial curve] | – |
| COc1ccc(S(=O)(=O)N2CCCCC2)cc1NC(=O)c1[nH]c(C)c(C(C)=O)c1C | – | inactive: -26.5% |
| CC1(Br)C(Sc2ccccc2[N+](=O)[O-])=Nc2ccccc21 (stereo not given) | inconclusive: 13.5 µM [inhibitor, partial curve] | – |
| O=c1[nH]c2cc3ccccc3cc2nc1-c1nnnn1C1CCCC1 | inconclusive: 13.5 µM [inhibitor, partial curve] | – |
| O=C(O)CCCCCNc1nc(-c2ccccc2)nc2ccccc12 | inconclusive: 15.1 µM [inhibitor, partial curve] | – |
| CCOc1cccc(CN2CCC(CCC(=O)NC3CC3)CC2)c1O | – | inactive: 5.16% |
| C=CCNC(=O)c1cn(CC)c2cc(N3CCN(C(=O)c4ccco4)CC3)c(F)cc2c1=O | inconclusive: 16.9 µM [inhibitor, single point] | – |
| COc1ccc(N2CCN(Cc3ccc(Br)s3)CC2)cc1 | active: 15.1 µM | – |
| COc1cc2c(=O)[nH]c3cc([N+](=O)[O-])ccc3c2cc1[N+](=O)[O-] | inconclusive: 9.53 µM [inhibitor, partial curve] | – |
| Clc1cccc(-c2ccc(CNCc3ccccn3)o2)c1 | active: 16.9 µM | – |
| Cc1cc(C(=O)COC(=O)c2ccc(O)cc2)c(C)n1CCc1ccc(F)cc1 | – | inactive: -11.6% |
| O=C(Oc1ccc(C(=S)N2CCOCC2)cc1)c1ccc(F)cc1 | – | inactive: 2.2% |
| Cc1ccc(S(=O)(=O)Nc2c(C)n(C)n(-c3ccccc3)c2=O)cc1C(=O)OC(C)C(=O)N(C)c1ccccc1 (stereo not given) | – | inactive: -10.9% |
| Cc1oc2c(cc(NS(=O)(=O)c3ccc4c5c(cccc35)C(=O)N4)c3ccccc32)c1C(=O)OC(C)C | inconclusive: 19 µM [inhibitor, single point] | – |
